From US12582614B2, “Composition for preventing, alleviating or treating sarcopenia, containing D-ribo-2-hexulose as active ingredient” (KYUNGPOOK NATIONAL UNIVERSITY INDUSTRY-ACADEMIC COOPERATION …, priority 2021, dated 2026)

Assay: Body weight, food intake and organ weights of aged mice fed 3% D-ribo-2-hexulose diet for 12 weeks
Format: in vivo, C57BL/6J male mice
Protocol: Twenty-one 48-week-old C57BL/6J male mice and seven 8-week-old C57BL/6J male mice were purchased from JA BIO Inc. (Korea). The purchased animals were raised in a breeding room with a controlled temperature (20 to 23° C.) and a light/dark cycle (a 12-hour cycle), and were provided with pelletized commercial non-purified feed for the first week.
Specifically, a negative control group (NC, n=7, American Institute of Nutrition AIN-93G Semisynthetic diet); a D-ribo-2-hexulose-treated group (D-ribo-2-hexulose; DRH, n=7; a portion of cellulose in AIN-93G was replaced with 3% D-ribo-2-hexulose). […] The dose of D-ribo-2-hexulose was set at 3% based on previous animal studies. In the previous studies, the dose of D-ribo-2-hexulose was determined to be 3% in order to investigate a biological effect at a lower dose than the dose. During the experiment, the mice had free access to distilled water, and the food intakes and body weights of the mice were measured weekly, and blood glucose was measured once every 4 weeks. All animal experiments were approved by the Animal Research Ethics Committee of KyungPook National University (Approval Number: KNU-2020-109).

[1] = DRH group, aged mice, AIN-93G + 3% DRH 12 weeks, Mean ± SD

O=C(CO)[C@H](O)[C@H](O)[C@H](O)CO [DRH, D-ribo-2-hexulose]
food efficiency ratio (FER) (DRH group vs NC group): significantly decreased
food intake (DRH group vs NC group): not significantly different
Energy intake [1]: 13.23 ± 0.30 ^ g/day
food intake [1]: 3.46 ± 0.08 ^ g/day
